# According to PMC3460870:
# These are yes or no findings as the source states them, for the method shown. In cells and extracts the contact can be indirect. A result given as binding can be weak or reduced; the word gives no strength. Where a sequence is shown, tags or fusion partners need not be part of it.
# Molecular target: T1, myc-Vangl1 (UniProt Q80Z96)
# T1 sequence: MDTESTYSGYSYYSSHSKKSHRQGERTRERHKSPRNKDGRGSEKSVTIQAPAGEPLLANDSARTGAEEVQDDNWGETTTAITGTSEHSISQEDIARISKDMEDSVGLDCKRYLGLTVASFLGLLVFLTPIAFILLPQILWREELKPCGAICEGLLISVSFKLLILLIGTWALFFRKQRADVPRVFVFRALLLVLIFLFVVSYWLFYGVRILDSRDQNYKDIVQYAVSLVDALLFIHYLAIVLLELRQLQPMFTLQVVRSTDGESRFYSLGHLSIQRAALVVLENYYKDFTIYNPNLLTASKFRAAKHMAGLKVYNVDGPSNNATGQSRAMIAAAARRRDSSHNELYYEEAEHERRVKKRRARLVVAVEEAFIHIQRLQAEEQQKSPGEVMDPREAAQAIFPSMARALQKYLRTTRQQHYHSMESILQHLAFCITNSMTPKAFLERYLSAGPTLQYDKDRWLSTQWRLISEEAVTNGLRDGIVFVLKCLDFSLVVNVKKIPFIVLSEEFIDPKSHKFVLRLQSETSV
# Experiment: co-IP; myc-Vangl1 co-expressed with GFP-Vangl2, its truncations or GFP in T47D cells; immunoprecipitation with anti-myc antibody, western blot
row,binding,Substance
1,binds,GFP-Vangl2.ΔNΔC (mouse) (domain or fragment)
2,binds,GFP-Vangl2.ΔC (mouse) (domain or fragment)
3,binds,GFP-Vangl2.ΔN (mouse) (domain or fragment)
